Assay [1] concerns the target T1, PTH receptor in bovine renal cortical plasma membranes (Bos taurus, UniProt Q1LZF7).
T1 construct: from tissue; host or cells: bovine renal cortex, plasma membranes
T1 sequence (Q1LZF7 29-589): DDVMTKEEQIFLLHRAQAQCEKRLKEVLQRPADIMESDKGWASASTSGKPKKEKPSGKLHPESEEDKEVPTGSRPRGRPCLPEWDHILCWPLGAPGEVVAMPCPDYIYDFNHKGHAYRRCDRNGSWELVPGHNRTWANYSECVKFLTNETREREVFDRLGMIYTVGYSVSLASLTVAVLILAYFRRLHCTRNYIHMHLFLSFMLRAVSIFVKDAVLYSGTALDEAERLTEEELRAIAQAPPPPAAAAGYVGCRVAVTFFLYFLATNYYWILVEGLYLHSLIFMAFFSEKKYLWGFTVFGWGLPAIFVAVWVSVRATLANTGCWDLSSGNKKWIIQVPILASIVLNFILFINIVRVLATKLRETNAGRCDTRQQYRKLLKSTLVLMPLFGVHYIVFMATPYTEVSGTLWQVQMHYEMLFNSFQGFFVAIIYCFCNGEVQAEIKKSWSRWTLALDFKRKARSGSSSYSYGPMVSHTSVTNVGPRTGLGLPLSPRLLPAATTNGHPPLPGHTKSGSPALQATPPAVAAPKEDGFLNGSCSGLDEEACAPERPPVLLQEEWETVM
Put plainly: PTH binding assay, bovine renal cortical plasma membranes, radioligand [Nle8,18,125I-Tyr34]bPTH(1-34)NH2. The conditions noted are these: 30 min at 21° C. How it is done: Bovine renal cortical plasma membranes were incubated with radioligand (25,000 cpm) in the absence or presence of PTH analogues in a Tris containing buffer (250 μl) for 30 min. at 21° C. Once equilibrium was reached, bound and free radioligand were separated by centrifugation.

Assay [2] addresses T2, I^125 -labeled PTH binding to rat osteosarcoma cell line ROS 17/2.8 (Rattus norvegicus, UniProt P25961).
T2 construct: bone-derived rat osteosarcoma cell line ROS 17/2.8; endogenous in cells; host or cells: ROS 17/2.8 rat osteosarcoma cells
T2 sequence (P25961 27-591): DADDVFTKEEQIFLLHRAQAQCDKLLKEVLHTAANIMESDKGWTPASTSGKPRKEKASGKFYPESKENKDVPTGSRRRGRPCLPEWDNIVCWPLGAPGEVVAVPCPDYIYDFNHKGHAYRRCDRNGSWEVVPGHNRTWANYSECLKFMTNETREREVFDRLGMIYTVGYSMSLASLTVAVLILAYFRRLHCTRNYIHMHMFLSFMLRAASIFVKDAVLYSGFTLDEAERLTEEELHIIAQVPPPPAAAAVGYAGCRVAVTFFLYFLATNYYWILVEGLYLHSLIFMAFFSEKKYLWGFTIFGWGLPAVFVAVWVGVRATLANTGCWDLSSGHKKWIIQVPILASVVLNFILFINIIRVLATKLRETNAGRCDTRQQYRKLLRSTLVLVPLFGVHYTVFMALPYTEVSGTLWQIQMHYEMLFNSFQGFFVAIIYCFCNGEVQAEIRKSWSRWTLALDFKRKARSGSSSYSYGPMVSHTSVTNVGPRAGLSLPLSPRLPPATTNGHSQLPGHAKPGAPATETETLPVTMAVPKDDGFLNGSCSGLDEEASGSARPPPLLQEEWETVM
The assay is described as follows: PTH binding assay, ROS 17/2.8 cells.

In the case of `CCCC[C@H](NC(=O)[C@H](CO)NC(=O)[C@H](CO)NC(=O)[C@H](CC(C)C)NC(=O)[C@H](Cc1c[nH]cn1)NC(=O)[C@H](CCCCN)NC(=O)[C@@H](Cc1c[nH]c2ccccc12)NC(=O)[C@H](CC(C)C)NC(=O)[C@H](CC(N)=O)NC(=O)[C@H](Cc1c[nH]cn1)NC(=O)[C@H](CCCC)NC(=O)[C@@H](N)Cc1ccccc1)C(=O)N[C@@H](CCC(=O)O)C(=O)N[C@@H](CCCNC(=N)N)C(=O)N[C@H](C(=O)N[C@@H](CCC(=O)O)C(=O)N[C@@H](Cc1c[nH]c2ccccc12)C(=O)N[C@@H](CC(C)C)C(=O)N[C@@H](CCCNC(=N)N)C(=O)N[C@@H](CCCCN)C(=O)N[C@@H](CCCCN)C(=O)N[C@@H](CC(C)C)C(=O)N[C@@H](CCC(N)=O)C(=O)N[C@@H](CC(=O)O)C(=O)N[C@H](C(=O)N[C@@H](Cc1c[nH]cn1)C(=O)N[C@@H](CC(N)=O)C(=O)N[C@@H](Cc1ccc(O)cc1)C(N)=O)C(C)C)C(C)C` [[D-Trp^12,Nle^8,18, Tyr^34]bPTH(7-34)NH2], the Ki in assay [1] was found to be 13 ± 3 nM; in assay [2], 182 ± 32 nM.
In assay [1], `CCCC[C@H](NC(=O)[C@H](CO)NC(=O)[C@H](CO)NC(=O)[C@H](CC(C)C)NC(=O)[C@H](Cc1c[nH]cn1)NC(=O)[C@H](CCCCN)NC(=O)[C@H](Cc1c[nH]c2ccccc12)NC(=O)[C@H](CC(C)C)NC(=O)[C@H](CC(N)=O)NC(=O)[C@H](Cc1c[nH]cn1)NC(=O)[C@H](CCCC)NC(=O)[C@@H](N)Cc1ccccc1)C(=O)N[C@@H](CCC(=O)O)C(=O)N[C@@H](CCCNC(=N)N)C(=O)N[C@H](C(=O)N[C@@H](CCC(=O)O)C(=O)N[C@@H](Cc1c[nH]c2ccccc12)C(=O)N[C@@H](CC(C)C)C(=O)N[C@@H](CCCNC(=N)N)C(=O)N[C@@H](CCCCN)C(=O)N[C@@H](CCCCN)C(=O)N[C@@H](CC(C)C)C(=O)N[C@@H](CCC(N)=O)C(=O)N[C@@H](CC(=O)O)C(=O)N[C@H](C(=O)N[C@@H](Cc1c[nH]cn1)C(=O)N[C@@H](CC(N)=O)C(=O)N[C@@H](Cc1ccc(O)cc1)C(N)=O)C(C)C)C(C)C` [[Nle^8,18,Trp^12,Tyr^34]bPTH(7-34)NH2, [L-Trp^12,Nle^8,18,Tyr^34]bPTH(7-34)NH2] registered a Ki of 51 ± 3 nM.

These data come from patent publication US4968669A, “Parathyroid hormone antagonists” (Merck & Co., Inc., priority 1989, dated 1990).
